± gives the standard deviation of the averaged measurements. The list shows a part of the results, in another mix than the full data.
Compound: Nc1ncnc2c1ncn2[C@@H]1O[C@H](COP(=O)(O)OP(=O)(O)OP(=O)(O)O)[C@@H](O)[C@H]1O [adenosine triphosphate]
Assay: NP40-soluble protein abundance relative to vehicle (solubility fold change) (ratio); higher = more soluble protein in presence of ATP
Outline: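 Each value is a fold change relative to the detergent-processed vehicle, calculated per replicate from vsn-normalised intensities. Jurkat crude lysate received eight concentrations (0.1 to 10 mM) for 10 min at room temperature and 3 min at 37 °C, then was solubilised in 0.8% NP40 with benzonase (60 min, 4 °C). The ultracentrifuged supernatant was TMT-labelled and run by LC-MS/MS in three independent experiments.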

Amino acid sequences for entries named in this document (tags omitted). A change or cut given only in a name is not applied to a line headed by its entry.
UniProt Q9NWV4: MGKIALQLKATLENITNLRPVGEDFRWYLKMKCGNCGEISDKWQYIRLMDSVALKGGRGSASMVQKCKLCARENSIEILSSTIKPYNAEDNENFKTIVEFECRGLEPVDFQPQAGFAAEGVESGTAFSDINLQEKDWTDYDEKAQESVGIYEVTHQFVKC
UniProt Q9NZ01: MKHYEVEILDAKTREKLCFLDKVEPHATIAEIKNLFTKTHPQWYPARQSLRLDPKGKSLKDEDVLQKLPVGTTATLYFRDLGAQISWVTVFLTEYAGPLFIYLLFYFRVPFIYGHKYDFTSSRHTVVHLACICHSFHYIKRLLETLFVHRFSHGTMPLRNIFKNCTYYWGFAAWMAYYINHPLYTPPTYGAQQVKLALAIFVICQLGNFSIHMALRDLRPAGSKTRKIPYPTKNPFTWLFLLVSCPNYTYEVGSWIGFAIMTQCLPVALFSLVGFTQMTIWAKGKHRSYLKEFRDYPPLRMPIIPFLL
UniProt Q9NZI8, whole entry: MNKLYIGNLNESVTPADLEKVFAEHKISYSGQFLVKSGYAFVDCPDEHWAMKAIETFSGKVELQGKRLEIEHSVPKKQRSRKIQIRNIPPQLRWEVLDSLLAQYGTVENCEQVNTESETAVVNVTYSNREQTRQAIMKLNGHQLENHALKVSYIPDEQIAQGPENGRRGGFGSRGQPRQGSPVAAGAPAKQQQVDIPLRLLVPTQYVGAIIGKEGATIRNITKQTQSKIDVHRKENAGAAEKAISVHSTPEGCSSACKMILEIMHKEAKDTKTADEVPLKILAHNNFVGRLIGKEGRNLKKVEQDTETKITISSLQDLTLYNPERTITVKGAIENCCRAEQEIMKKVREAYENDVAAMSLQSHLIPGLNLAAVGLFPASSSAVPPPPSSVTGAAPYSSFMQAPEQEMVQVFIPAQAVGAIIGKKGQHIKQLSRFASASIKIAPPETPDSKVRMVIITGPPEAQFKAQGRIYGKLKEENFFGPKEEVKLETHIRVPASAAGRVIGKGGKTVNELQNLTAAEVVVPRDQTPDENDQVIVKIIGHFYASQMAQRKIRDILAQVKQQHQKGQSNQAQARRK
UniProt Q9NWQ8: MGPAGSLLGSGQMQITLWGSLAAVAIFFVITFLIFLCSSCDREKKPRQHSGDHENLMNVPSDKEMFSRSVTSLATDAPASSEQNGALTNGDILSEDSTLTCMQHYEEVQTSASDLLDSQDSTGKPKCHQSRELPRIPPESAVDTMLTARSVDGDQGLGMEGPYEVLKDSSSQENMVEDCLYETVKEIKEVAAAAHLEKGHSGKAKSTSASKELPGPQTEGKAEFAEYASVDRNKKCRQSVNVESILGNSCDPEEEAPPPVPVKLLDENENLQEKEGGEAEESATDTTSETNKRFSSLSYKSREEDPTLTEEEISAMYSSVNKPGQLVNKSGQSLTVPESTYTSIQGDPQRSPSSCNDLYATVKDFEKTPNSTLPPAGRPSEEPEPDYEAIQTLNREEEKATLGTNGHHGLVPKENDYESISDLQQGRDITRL
UniProt Q9NRL2: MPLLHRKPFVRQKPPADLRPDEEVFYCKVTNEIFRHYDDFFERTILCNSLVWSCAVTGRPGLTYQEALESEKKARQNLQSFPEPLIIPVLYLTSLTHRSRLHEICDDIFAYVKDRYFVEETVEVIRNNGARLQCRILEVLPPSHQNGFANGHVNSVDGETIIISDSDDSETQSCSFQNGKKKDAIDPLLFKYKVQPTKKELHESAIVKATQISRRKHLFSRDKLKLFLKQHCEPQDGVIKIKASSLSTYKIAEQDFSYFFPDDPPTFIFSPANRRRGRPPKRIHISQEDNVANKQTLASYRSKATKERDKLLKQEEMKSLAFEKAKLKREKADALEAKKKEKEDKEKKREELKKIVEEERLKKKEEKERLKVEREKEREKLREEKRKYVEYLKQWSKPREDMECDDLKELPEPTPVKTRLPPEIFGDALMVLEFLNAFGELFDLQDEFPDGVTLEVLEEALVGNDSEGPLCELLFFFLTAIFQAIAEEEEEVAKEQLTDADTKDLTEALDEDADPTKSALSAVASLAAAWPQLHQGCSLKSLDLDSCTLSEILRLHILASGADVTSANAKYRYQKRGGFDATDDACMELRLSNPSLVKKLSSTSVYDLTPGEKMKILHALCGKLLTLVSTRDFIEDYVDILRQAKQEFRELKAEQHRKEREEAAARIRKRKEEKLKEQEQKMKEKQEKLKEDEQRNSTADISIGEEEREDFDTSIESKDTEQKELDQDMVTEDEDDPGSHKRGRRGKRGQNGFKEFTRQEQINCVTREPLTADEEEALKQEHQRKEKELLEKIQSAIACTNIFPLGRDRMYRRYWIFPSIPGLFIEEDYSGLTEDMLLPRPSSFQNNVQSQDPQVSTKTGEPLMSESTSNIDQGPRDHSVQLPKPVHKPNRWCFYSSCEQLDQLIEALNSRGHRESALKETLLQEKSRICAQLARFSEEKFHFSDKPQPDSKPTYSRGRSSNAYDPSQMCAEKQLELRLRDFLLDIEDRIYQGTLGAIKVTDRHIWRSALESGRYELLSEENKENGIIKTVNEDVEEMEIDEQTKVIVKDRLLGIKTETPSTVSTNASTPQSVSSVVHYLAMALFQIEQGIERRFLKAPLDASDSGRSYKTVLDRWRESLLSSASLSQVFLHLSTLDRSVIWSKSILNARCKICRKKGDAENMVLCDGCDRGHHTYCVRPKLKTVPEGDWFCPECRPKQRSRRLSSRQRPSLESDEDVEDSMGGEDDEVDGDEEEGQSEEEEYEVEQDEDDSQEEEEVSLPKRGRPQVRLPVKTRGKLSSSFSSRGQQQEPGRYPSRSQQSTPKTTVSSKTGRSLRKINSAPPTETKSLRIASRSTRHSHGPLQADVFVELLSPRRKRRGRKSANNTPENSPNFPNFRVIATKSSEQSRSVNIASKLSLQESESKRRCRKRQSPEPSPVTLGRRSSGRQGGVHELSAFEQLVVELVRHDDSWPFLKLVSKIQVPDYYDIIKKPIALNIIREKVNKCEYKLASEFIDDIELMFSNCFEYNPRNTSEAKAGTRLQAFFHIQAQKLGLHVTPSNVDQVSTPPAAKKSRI
UniProt Q9NVX2: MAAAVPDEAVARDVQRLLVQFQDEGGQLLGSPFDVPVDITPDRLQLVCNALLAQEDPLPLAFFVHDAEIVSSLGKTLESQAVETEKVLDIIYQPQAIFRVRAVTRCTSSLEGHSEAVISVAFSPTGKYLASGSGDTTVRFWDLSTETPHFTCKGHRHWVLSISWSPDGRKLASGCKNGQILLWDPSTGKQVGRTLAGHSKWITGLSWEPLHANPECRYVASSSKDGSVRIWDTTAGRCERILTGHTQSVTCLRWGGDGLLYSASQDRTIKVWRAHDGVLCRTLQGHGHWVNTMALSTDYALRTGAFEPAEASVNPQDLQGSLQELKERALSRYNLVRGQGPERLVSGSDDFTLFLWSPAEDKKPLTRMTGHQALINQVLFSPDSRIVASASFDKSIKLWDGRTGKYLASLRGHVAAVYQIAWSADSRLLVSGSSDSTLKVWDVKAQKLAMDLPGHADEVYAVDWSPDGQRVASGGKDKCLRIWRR
UniProt Q9NWT6: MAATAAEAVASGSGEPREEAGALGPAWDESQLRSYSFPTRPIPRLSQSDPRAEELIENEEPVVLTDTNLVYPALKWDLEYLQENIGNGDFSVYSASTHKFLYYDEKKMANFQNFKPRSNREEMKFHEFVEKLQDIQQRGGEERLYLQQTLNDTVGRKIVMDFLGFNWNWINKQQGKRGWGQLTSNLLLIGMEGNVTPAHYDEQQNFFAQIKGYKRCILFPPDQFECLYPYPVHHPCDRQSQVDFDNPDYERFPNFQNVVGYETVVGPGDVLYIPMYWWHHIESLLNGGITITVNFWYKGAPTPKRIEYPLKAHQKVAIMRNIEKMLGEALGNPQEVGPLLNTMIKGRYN
UniProt Q9NQR4: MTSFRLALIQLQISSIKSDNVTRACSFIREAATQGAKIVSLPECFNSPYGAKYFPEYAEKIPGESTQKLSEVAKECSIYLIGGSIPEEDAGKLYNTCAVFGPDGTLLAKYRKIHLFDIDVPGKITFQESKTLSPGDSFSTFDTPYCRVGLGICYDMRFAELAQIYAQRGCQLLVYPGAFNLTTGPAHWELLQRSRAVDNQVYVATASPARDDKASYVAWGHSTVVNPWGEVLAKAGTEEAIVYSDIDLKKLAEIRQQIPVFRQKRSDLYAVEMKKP
UniProt Q9NUE0: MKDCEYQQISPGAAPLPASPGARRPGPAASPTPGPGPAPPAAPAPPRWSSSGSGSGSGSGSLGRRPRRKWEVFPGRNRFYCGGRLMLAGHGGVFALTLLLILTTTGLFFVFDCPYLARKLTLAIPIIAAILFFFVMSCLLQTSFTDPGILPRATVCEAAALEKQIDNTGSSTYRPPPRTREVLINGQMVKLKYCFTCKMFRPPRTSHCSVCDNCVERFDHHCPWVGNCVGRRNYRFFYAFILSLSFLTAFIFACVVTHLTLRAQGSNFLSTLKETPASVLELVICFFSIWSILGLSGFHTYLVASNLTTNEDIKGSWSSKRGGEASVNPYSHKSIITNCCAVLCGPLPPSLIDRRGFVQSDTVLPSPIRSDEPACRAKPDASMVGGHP
UniProt Q9P016: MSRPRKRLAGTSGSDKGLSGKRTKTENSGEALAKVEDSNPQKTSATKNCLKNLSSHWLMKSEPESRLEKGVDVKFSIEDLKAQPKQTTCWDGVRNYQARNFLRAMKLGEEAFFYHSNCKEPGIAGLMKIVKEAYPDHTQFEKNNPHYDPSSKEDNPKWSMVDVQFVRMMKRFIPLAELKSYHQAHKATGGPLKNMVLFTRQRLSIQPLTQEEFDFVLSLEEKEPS
UniProt Q9NVM9, whole entry: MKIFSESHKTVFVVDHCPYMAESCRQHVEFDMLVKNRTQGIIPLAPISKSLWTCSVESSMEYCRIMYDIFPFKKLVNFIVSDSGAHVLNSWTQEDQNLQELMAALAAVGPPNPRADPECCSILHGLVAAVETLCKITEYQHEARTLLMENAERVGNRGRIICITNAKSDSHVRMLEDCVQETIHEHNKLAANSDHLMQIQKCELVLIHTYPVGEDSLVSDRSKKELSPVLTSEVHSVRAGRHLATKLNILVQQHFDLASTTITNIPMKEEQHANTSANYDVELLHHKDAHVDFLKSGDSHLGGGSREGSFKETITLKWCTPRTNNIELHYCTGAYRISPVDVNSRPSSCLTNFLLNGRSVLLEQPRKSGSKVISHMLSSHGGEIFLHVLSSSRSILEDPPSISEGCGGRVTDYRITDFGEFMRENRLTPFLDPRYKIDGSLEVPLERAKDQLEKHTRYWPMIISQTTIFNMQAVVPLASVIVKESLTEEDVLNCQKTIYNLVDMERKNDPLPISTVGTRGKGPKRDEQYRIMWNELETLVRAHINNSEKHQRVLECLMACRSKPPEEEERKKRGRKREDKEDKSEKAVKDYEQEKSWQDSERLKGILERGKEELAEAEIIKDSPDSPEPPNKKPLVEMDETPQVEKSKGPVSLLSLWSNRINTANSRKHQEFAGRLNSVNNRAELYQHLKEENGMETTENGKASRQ
UniProt Q9NWF9: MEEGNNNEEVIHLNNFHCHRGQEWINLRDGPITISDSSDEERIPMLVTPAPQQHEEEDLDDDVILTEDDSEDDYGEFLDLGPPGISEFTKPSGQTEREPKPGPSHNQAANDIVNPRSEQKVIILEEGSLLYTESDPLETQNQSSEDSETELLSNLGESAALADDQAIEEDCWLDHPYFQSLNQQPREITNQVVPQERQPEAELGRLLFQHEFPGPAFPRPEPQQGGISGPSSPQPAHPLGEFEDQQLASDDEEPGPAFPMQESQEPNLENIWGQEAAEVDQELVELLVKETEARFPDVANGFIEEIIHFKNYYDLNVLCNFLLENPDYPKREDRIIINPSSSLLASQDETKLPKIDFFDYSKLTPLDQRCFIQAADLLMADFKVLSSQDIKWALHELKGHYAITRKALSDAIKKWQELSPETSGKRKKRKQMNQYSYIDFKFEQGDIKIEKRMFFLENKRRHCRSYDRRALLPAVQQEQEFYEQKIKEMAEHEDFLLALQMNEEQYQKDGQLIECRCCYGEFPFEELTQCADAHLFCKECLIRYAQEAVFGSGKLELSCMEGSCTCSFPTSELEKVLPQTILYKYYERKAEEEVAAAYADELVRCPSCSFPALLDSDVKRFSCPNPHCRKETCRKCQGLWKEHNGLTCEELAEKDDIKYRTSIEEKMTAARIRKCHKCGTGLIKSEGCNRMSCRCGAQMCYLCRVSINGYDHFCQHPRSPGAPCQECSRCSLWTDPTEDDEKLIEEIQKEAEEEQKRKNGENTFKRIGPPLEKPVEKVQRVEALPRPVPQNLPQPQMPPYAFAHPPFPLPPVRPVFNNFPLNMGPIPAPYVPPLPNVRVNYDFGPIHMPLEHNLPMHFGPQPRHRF
UniProt Q9NRW1: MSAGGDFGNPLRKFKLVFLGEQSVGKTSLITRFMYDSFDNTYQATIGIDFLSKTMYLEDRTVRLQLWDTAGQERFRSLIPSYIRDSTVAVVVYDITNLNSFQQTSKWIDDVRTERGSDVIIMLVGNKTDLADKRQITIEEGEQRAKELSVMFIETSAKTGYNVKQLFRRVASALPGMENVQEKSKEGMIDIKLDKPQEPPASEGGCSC

Row | Target | NP40-soluble protein abundance (concentration: 1mM) | NP40-soluble protein abundance (concentration: 2mM) | NP40-soluble protein abundance (concentration: 4mM) | NP40-soluble protein abundance (concentration: 6mM) | NP40-soluble protein abundance (concentration: 8mM) | NP40-soluble protein abundance (concentration: 10mM)
1 | UniProt Q9NWV4 | 0.955 ± 0.011 | 0.967 ± 0.025 | 0.929 ± 0.02 | 0.97 ± 0.025 | 0.942 ± 0.03 | 0.933 ± 0.036
2 | UniProt Q9NZ01 | 1.03 ± 0.15 | 0.976 ± 0.097 | 0.964 ± 0.076 | 0.942 ± 0.076 | 1.04 ± 0.028 | 1.02 ± 0.09
3 | IGF2BP1 (UniProt Q9NZI8) | 0.9816 ± 0.0045 | 0.979 ± 0.024 | 0.974 ± 0.016 | 1.01 ± 0.042 | 1 ± 0.024 | 0.996 ± 0.022
4 | PAG1 (UniProt Q9NWQ8) | 0.986 ± 0.17 | 0.939 ± 0.12 | 0.961 ± 0.11 | 1.04 ± 0.18 | 0.929 ± 0.085 | 0.929 ± 0.11
5 | SIRT5 (UniProt Q9NXA8) | 0.964 ± 0.068 | 1.01 ± 0.032 | 1.01 ± 0.025 | 0.992 ± 0.037 | 0.955 ± 0.025 | 0.985 ± 0.03
6 | BAZ1A (UniProt Q9NRL2) | 1.11 ± 0.021 | 1.11 ± 0.019 | 1.11 ± 0.025 | 1.16 ± 0.051 | 1.15 ± 0.026 | 1.15 ± 0.038
7 | NLE1 (UniProt Q9NVX2) | 1 ± 0.086 | 1.01 ± 0.1 | 1.03 ± 0.094 | 0.962 ± 0.095 | 0.964 ± 0.055 | 1.01 ± 0.068
8 | POLE3 (UniProt Q9NRF9) | 0.942 ± 0.14 | 0.914 ± 0.074 | 0.991 ± 0.13 | 0.961 ± 0.16 | 0.882 ± 0.052 | 0.822 ± 0.17
9 | HIF1AN (UniProt Q9NWT6) | 0.996 ± 0.04 | 0.977 ± 0.02 | 0.9548 ± 0.0048 | 0.929 ± 0.079 | 0.9589 ± 0.0057 | 0.9413 ± 0.0055
10 | NIT2 (UniProt Q9NQR4) | 0.99 ± 0.031 | 0.974 ± 0.058 | 0.929 ± 0.04 | 0.994 ± 0.093 | 0.954 ± 0.057 | 0.955 ± 0.063
11 | ZDHHC18 (UniProt Q9NUE0) | 1.02 ± 0.12 | 1.02 ± 0.086 | 1.06 ± 0.12 | 1.05 ± 0.13 | 0.948 ± 0.11 | 0.984 ± 0.12
12 | THYN1 (UniProt Q9P016) | 1.01 ± 0.097 | 1.04 ± 0.029 | 1.04 ± 0.049 | 1.15 ± 0.043 | 1.09 ± 0.016 | 1.07 ± 0.094
13 | UniProt Q9NVM9 | 1.03 ± 0.021 | 1.03 ± 0.019 | 1.04 ± 0.011 | 1.08 ± 0.033 | 1.08 ± 0.019 | 1.07 ± 0.035
14 | UniProt Q9NWF9 and related entries | 0.88 ± 0.081 | 0.914 ± 0.061 | 0.944 ± 0.063 | 0.988 ± 0.09 | 0.96 ± 0.048 | 0.981 ± 0.043
15 | UniProt Q9NRW1 | 1 ± 0.12 | 1.01 ± 0.055 | 0.989 ± 0.053 | 0.956 ± 0.093 | 0.941 ± 0.045 | 1.03 ± 0.1

Part of the list above, tab-delimited.
Row	Target	NP40-soluble protein abundance (concentration: 1mM)	NP40-soluble protein abundance (concentration: 2mM)	NP40-soluble protein abundance (concentration: 4mM)	NP40-soluble protein abundance (concentration: 6mM)	NP40-soluble protein abundance (concentration: 8mM)	NP40-soluble protein abundance (concentration: 10mM)
1	UniProt Q9NWV4	0.955 ± 0.011	0.967 ± 0.025	0.929 ± 0.02	0.97 ± 0.025	0.942 ± 0.03	0.933 ± 0.036
3	IGF2BP1 (UniProt Q9NZI8)	0.9816 ± 0.0045	0.979 ± 0.024	0.974 ± 0.016	1.01 ± 0.042	1 ± 0.024	0.996 ± 0.022
7	NLE1 (UniProt Q9NVX2)	1 ± 0.086	1.01 ± 0.1	1.03 ± 0.094	0.962 ± 0.095	0.964 ± 0.055	1.01 ± 0.068
13	UniProt Q9NVM9	1.03 ± 0.021	1.03 ± 0.019	1.04 ± 0.011	1.08 ± 0.033	1.08 ± 0.019	1.07 ± 0.035

— the supplement of paper PMC6411743
